Measured values reported in PubChem BioAssay (NCATS).
The list shows a part of the results. Further columns of the screen follow, without active or inactive calls. The list favours compounds with an active or inconclusive main result.

Assay: qHTS for identification of novel therapeutic agents for treatment of microphthalmiaassociated transcription factor (MiT) renal cell carcinoma (RCC) (AID 1963991)
Conditions: TFE3-RCC viability, CellTiter-Glo, 48 h; measured here: UOK124 Z-AUC; stronger effect = lower value
How it was run: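 Three TFE3-fusion RCC cell lines (UOK109, UOK124, UOK145), 500 cells/well, were exposed to the 1912-compound MIPE 4.0 library for 48 hours at 37 C. Viability was read by CellTiter-Glo luminescence, normalised to DMSO (100%) and empty wells (0%), with 11-concentration curve fits.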

| Structure (SMILES) | z-score |
| --- | --- |
| O[C@@H](COc1cccc2ncccc12)CN1CCN(C2c3ccccc3[C@@H]3[C@H](c4ccccc42)C3(F)F)CC1 (some centres not stated) | -0.103 |
| Cc1c(C(=O)NN2CCCCC2)nn(-c2ccc(Cl)cc2Cl)c1-c1ccc(Cl)cc1 | 0.701 |
| Cc1cc2c(C(C)C)c(O)c(O)c(C=O)c2c(O)c1-c1c(C)cc2c(C(C)C)c(O)c(O)c(C=O)c2c1O | 0.157 |
| COC(=O)Nc1nc2ccc(S(=O)c3ccccc3)cc2[nH]1 (configuration not stated) | 0.267 |
| CN(C)C(=O)C(CCN1CCC(O)(c2ccc(Cl)cc2)CC1)(c1ccccc1)c1ccccc1 | -0.279 |
| Clc1ccc(C(Cn2ccnc2)OCc2ccc(Sc3ccccc3)cc2)c(Cl)c1 (configuration not stated) | 0.55 |
| Clc1ccc(C(Cn2ccnc2)OCc2c(Cl)cccc2Cl)c(Cl)c1 (configuration not stated) | 0.193 |
| O=C(c1ccc(OCCN2CCCCC2)cc1)c1c(-c2ccc(O)cc2)sc2cc(O)ccc12 | -0.0878 |
| Cc1ccc(Nc2nccc(N(C)c3ccc4c(C)n(C)nc4c3)n2)cc1S(N)(=O)=O | 0.321 |
| NC1(c2ccc(-c3nc4ccn5c(=O)[nH]nc5c4cc3-c3ccccc3)cc2)CCC1 | 0.987 |
| OCCN1CCN(CCCN2c3ccccc3Sc3ccc(C(F)(F)F)cc32)CC1 | -0.0598 |
| Cc1nc(Nc2ncc(C(=O)Nc3c(C)cccc3Cl)s2)cc(N2CCN(CCO)CC2)n1 | -1.9 |
| CC(=O)Oc1ccccc1C(=O)Nc1ncc([N+](=O)[O-])s1 | 0.724 |
| CCCS(=O)c1ccc2nc(NC(=O)OC)[nH]c2c1 (configuration not stated) | -0.0858 |
| CCCCc1oc2ccc(NS(C)(=O)=O)cc2c1C(=O)c1ccc(OCCCN(CCCC)CCCC)cc1 | -0.344 |
| C1CCC(C(CC2CCCCN2)C2CCCCC2)CC1 (configuration not stated) | -1.02 |
| O=C(O)c1ccc(-n2nc(-c3ccccc3O)nc2-c2ccccc2O)cc1 | 0.424 |

Entries shown so far with four or more nitrogen atoms:

| Structure (SMILES) | z-score |
| --- | --- |
| Cc1c(C(=O)NN2CCCCC2)nn(-c2ccc(Cl)cc2Cl)c1-c1ccc(Cl)cc1 | 0.701 |
| Cc1ccc(Nc2nccc(N(C)c3ccc4c(C)n(C)nc4c3)n2)cc1S(N)(=O)=O | 0.321 |
| NC1(c2ccc(-c3nc4ccn5c(=O)[nH]nc5c4cc3-c3ccccc3)cc2)CCC1 | 0.987 |
| Cc1nc(Nc2ncc(C(=O)Nc3c(C)cccc3Cl)s2)cc(N2CCN(CCO)CC2)n1 | -1.9 |
